Measurements from PMC3514159.
No constants are given. Whether binding was seen depends on the method and setting. In cells and extracts the contact can be indirect. Some entries that bind do so weakly or less than the wild type.

Chains of the proteins cited; added tags and fusions are not shown.
UniProt P48059: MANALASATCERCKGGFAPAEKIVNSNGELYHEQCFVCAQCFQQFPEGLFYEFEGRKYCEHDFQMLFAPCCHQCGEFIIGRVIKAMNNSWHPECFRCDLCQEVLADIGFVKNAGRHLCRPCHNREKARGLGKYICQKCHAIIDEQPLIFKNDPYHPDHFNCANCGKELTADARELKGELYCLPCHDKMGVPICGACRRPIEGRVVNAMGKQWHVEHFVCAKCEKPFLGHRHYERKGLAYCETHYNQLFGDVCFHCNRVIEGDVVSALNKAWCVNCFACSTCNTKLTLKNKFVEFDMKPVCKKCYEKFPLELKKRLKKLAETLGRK
UniProt P49639: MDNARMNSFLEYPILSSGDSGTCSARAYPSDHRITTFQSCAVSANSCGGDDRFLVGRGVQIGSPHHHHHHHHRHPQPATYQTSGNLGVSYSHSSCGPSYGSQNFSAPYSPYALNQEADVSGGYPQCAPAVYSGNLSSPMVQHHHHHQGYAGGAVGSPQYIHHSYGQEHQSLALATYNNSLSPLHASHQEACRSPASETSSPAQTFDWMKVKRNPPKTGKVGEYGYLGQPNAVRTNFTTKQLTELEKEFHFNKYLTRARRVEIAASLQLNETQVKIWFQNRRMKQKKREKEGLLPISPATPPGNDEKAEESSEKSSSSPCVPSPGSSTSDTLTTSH
UniProt O75865: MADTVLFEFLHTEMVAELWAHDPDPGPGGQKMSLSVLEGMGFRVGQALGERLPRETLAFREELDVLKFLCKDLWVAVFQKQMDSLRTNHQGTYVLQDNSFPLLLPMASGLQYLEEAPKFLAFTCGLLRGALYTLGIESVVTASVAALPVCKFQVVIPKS
UniProt P09022: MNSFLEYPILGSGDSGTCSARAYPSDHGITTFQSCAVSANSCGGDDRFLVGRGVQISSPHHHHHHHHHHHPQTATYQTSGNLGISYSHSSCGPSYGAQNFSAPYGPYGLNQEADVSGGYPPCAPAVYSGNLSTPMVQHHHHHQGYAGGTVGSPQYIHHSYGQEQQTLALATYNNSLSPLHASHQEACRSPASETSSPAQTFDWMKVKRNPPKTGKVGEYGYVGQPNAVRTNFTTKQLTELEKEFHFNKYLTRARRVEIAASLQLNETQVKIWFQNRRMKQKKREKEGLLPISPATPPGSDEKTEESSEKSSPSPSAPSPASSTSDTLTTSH

How the values were obtained:
Experiment in all cases: pull-down; GST-hORF and FLAG-Hoxa1 co-expressed in COS7 or HEK293T; cleared lysate (Tris-HCl pH7.5 20mM, NaCl 120mM, EDTA 0.5mM, NP40 0.5%, glycerol 10%) overnight on glutathione-agarose beads, 3 washes; anti-FLAG western blot
[1] = molecular target: LIM and senescent cell antigen-like domains 1 (human) (UniProt P48059)
[2] = molecular target: T1, PR domain containing 14 (human) (UniProt Q9GZV8)
T1 sequence: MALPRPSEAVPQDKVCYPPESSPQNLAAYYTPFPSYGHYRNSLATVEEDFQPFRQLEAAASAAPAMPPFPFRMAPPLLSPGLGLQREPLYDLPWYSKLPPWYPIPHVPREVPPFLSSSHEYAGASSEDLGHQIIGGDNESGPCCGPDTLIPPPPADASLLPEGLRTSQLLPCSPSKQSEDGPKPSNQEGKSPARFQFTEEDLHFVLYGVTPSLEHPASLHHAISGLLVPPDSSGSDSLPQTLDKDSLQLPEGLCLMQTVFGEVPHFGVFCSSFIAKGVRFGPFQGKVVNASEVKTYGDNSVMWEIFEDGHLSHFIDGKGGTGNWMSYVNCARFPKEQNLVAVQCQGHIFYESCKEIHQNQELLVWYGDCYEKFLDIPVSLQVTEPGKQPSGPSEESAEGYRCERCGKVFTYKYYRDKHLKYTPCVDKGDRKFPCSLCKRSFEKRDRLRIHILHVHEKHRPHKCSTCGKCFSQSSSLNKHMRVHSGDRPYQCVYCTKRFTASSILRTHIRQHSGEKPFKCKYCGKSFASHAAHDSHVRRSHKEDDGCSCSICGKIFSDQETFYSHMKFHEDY

[3] = molecular target: T2, TNF receptor-associated factor 1 (human) (UniProt Q13077)
T2 sequence: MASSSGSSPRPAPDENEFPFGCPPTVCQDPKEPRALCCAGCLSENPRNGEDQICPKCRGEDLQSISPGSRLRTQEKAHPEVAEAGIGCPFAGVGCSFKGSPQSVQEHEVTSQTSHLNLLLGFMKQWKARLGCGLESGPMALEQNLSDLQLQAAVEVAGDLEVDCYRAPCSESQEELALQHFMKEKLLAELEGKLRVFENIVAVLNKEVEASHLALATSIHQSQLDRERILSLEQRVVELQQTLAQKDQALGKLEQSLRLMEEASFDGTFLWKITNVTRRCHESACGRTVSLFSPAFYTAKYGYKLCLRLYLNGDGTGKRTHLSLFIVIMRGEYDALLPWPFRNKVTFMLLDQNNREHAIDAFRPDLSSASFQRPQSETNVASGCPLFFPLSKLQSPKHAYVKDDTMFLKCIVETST

[4] = molecular target: T3, family with sequence similarity 108, member A1 (human) (UniProt Q96GS6)
T3 sequence: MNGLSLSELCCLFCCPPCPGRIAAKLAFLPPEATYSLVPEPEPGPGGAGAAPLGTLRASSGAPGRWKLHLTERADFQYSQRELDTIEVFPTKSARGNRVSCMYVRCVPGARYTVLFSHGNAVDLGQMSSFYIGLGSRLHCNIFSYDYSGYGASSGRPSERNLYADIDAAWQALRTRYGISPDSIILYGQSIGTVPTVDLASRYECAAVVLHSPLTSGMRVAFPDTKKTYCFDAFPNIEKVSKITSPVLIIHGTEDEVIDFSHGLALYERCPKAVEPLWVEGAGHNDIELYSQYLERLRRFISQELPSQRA

[5] = molecular target: homeobox A1 (human) (UniProt P49639)
[6] = molecular target: trafficking protein particle complex 6A (human) (UniProt O75865)

Measured: binding

FLAG-Hoxa1 (from UniProt P09022 1-331)
binds: [1] | [2] | [3] | [4] | [5] | [6]
